Data from publication PMC6593404.
Results are given in words; binding and its absence hold for the method and conditions named. In cells and extracts the contact can be indirect. A yes stands for co-enrichment or nearness to the bait. Other partners may have been found. For part of these data: A no says only that the protein was not detected with the bait. Where a sequence is shown, tags or fusion partners need not be part of it. Values belong to the molecule of their own block, whether it stands above or below them.

Sequences of proteins named here, by UniProt entry; tags and fusion partners are left off.
UniProt A0QP27: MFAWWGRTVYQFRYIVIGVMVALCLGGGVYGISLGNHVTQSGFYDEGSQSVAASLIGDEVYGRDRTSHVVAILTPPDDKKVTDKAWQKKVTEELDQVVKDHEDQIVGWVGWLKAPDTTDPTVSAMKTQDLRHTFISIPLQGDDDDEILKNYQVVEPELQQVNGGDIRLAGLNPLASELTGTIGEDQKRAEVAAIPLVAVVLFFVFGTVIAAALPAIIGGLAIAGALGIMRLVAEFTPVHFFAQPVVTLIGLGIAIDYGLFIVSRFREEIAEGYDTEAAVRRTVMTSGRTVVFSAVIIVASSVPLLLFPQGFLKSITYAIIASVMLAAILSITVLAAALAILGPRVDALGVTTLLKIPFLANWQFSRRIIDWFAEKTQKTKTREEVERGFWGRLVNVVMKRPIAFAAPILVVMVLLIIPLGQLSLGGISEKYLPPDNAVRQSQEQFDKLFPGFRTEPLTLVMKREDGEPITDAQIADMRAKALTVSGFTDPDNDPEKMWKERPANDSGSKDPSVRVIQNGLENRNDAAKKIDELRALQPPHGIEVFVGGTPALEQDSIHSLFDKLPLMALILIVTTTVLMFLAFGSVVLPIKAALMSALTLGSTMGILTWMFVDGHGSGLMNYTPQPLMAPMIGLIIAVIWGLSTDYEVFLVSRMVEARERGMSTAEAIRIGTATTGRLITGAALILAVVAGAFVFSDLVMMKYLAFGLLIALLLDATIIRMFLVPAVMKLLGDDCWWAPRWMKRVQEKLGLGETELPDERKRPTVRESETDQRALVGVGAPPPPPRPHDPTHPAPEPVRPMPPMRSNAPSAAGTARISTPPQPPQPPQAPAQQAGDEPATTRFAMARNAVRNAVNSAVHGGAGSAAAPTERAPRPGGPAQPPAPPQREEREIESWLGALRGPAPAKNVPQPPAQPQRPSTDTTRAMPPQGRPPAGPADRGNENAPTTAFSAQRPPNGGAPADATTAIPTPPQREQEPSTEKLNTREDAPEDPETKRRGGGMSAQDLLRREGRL

Key:
[1] = molecular target: T1, MSMEG_0736 (TtfA)-msfGFP, full length (Mycobacterium smegmatis) (UniProt A0QQF4); assay: affinity purification with mass spectrom
T1 sequence: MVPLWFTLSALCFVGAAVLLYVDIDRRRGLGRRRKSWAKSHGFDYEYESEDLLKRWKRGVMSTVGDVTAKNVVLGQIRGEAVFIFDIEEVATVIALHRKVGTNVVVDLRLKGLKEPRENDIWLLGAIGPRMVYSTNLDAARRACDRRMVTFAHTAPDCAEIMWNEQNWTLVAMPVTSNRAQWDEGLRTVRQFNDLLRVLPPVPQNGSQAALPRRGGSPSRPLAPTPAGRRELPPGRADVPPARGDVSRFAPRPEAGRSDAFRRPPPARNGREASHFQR

[2] = molecular target: T1, MSMEG_0736 (TtfA)-msfGFP, full length (Mycobacterium smegmatis); assay: affinity purification with mass spectrometry; msfGFP-tagged bait captured on GFP-Trap_MA beads (anti-GFP nanobody) from membranes solubilized in 1% DDM, 50 mM Tris-HCl pH 7.5, 150 mM NaCl, 4°C; washed with 0.2% DDM; eluates by shotgun mass spectrometry (in a replicate an excised gel band)
[3] = molecular target: MmpL3-msfGFP (MSMEG_0250 with C-terminal monomeric superfolder GFP) (Mycobacterium smegmatis) (UniProt A0QP27); assay: as above
[4] = molecular target: MmpL10 (MSMEG_0410)-msfGFP (Mycobacterium smegmatis); assay: as above

binding [1]: binds
Molecule: VirR (vesiculogenesis regulator), M. smegmatis protein found in MsTtfA purifications

binding [2]: binds
Molecule: MmpL3 (MSMEG_0250), untagged (from UniProt A0QP27 1-1013)

binding [3]: binds
binding [4]: no binding
B1: MSMEG_0736 (TMM transport factor A, TtfA), untagged (protein, UniProt A0QQF4 1-278)
chain: T1 sequence

B2: MSMEG_5308, untagged (protein, UniProt A0R316 1-368)
chain: MTMAKNILRAITAIVRRDAKTPDTDDSAGSVTFDGALDDLDVAGLVEVGRGPIADIAIDADRETIVVTNSAADCLTVINPYTLAPVGSVRLNGEPFAVAAADDRAYVSVVTAGHDAIKVVDTITGSVLAEYPLAMTVTALAMSPDGKRVFVGRSGHDRIDVAVIDTAAERVGTIDLASGAGAGVDALRVDASGKRLYVATTDPRGSRMVTVNIETAQIESTVWIGAPIRDLALGADGKALVLTSDRQRRGVVHIVDLSTAAVVGAIQIGGAPTQLVLSPDATRAYVVDYDRVIVLCTLTNEILGSIDVGMQPAAVAVRRDGARVYVADYSGQVNAFDVAAELPALYSRLVASEPRQDATTVLPSLQTA
binding [4]: no binding
binding [2]: binds
